Test results: patent publication US6894153B1, “Gene Any-RF; dormancy regulatory substance, process for producing the same and cell regulator for vital cells” (priority 1999, dated 2005)
Not every detail of the peptide structures is certain; ends, links or a residue may be inferred. Residues, ends and D or L forms follow the SMILES beside them. No end group written: not given here.

Tested on: pre-larvae of Antheraea yamamai
Experiment: Bioassay of dormancy-control in pre-larvae destined to awake by KK-42 treatment
Conditions: 100 pmol/0.05 μl injected once 24 hours after KK-42 treatment; N 10 × 3
Experimental: In general, the activity of a repressive factor is determined using a non-dormancy type insect and evaluated on the basis of the rate of dormancy induction, but there is not any non-dormancy type strain in Antheraea yamamai.
Subsequent to the completion of the treatment for awakening from the dormancy, 0.05 μl each of distilled water was injected to each larva after 24 hours from the completion of the treatment and this group of larvae was used as the control group. In the case of the isolated and purified product, a solution whose concentration was adjusted in such a manner that 100 pmol of the product was present in 0.05 μl of distilled water was injected into each larva, while in the case of the synthetic peptides in the amidated and free acid forms, 100 pmol/0.05 μl each of the peptide was injected into each larva. […]
After 24 hours from the treatment with the KK-42 solution, 0.05 μl of distilled water was injected to the pre-larvae, followed by a second distilled water injection thereto after additional 24 hours and a third distilled water injection after additional 24 hours from the second distilled water injection (in the following Table 2, they are referred to as control 1, 2 and 3 respectively). And the rate of pre-larvae awaken from the dormancy (the rate of diapause termination) was evaluated in each case.

Molecule | Number of Insects Dor (Dormancy)
CC[C@H](C)[C@H](NC(=O)[C@@H](N)CC(=O)O)C(=O)N[C@@H](CC(C)C)C(=O)N[C@@H](CCCNC(=N)N)C(=O)NCC(N)=O [Purified Peptide] (H-DILRG-NH2) | 17
DILRG-OH [Asp-Ile-Leu-Arg-Gly-COOH] | 3
